In assay [1] the target is T1, Flag-tagged TLE6, wild type (human) (UniProt Q9H808).
T1 sequence: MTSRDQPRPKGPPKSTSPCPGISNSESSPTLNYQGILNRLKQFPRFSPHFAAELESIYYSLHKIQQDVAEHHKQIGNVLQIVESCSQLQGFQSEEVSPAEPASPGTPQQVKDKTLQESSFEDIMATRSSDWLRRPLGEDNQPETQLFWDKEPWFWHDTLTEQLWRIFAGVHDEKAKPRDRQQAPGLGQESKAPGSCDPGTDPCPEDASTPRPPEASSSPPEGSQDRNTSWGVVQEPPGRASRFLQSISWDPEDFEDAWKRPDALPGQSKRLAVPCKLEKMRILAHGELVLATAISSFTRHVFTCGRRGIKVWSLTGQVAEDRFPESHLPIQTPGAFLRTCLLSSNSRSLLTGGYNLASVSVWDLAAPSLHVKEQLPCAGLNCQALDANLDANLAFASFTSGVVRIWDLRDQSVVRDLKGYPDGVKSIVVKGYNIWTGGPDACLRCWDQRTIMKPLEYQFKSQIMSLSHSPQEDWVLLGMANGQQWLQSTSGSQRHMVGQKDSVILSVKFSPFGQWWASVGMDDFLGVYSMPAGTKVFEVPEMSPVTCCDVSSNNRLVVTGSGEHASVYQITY
The assay is described as follows: co-IP; cells expressing Flag-tagged wild-type or S510Y TLE6; lysate on anti-Flag beads, 2 h at 4 °C, pull-down buffer 50 mM HEPES pH 7.5, 150 mM NaCl, 0.1 % Tween 20; immunoblot for OOEP and KDHC3L. (In western blotting, separated proteins are transferred to a membrane and probed.)

Chains of the proteins cited; added tags and fusions are not shown.
UniProt A6NGQ2: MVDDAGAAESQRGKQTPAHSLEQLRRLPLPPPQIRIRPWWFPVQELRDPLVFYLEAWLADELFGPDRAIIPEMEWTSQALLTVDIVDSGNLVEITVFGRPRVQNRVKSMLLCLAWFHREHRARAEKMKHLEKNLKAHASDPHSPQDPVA

Assay [2] concerns the target T2, Flag-tagged TLE6 S510Y (human) (UniProt Q9H808).
T2 sequence: T1 sequence with S510Y
The description is as above.

The source of these data is paper PMC4634911.

Numbering of substitutions follows the chain as printed. These are yes or no findings as the source states them, for the method shown. In cells and extracts the contact can be indirect. Some results given as binding are weak or reduced against the parent protein; the word gives no strength. Where a sequence is shown, tags or fusion partners need not be part of it.

For the substance “OOEP in the cells transfected with Flag-TLE6 (from UniProt A6NGQ2 1-149)”, the binding entry in assay [1] and in assay [2] was “binds” throughout.
